{"source": "PubChem BioAssay AID1259297 – Sanger Institute – 2017", "aim": "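siRNA screen across the kinome seeking drug partners in cells of colorectal cancer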 (primary screen)", "system": "human RCM1 colorectal cancer cell line", "knock-down reagent": "siRNA pool against human genes", "challenge": "separate arms: DMSO vehicle, or one anchor drug at a mild dose: BYL719 1 µM, cetuximab 5 µg/ml, trametinib 10 nM", "measured": "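Viability per well relative to a non-targeting pool, mean of replicates; robust z-score for knock-down alone; synergy score with BYL719, cetuximab or trametinib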", "reading the numbers": "viability z-score, knock-down alone: higher = more viable cells than non-targeting controls", "hit rule": "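Essential when the viability robust z-score for knock-down alone is below -3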", "meaning of the calls": "active = essential when knocked down alone; inactive = no clear loss of viability alone", "note": "The deposit covers 794 reagents; below is an unselected part. In the full data, 13 (1.6%) were called active. 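Calls reflect knock-down without drug only; drug synergy is judged separately, with scores above 0.15 counted as synergy.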 Not all columns of the deposit are shown. Not stated in the record: the amount of reagent, the time to read-out."}
{"gene": "CLK3", "viability z-score, knock-down alone": 0.9, "Outcome": "inactive"}
{"gene": "NIM1K", "viability z-score, knock-down alone": 0.388, "Outcome": "inactive"}
{"gene": "STK32B", "viability z-score, knock-down alone": 0.00519, "Outcome": "inactive"}
{"gene": "TYK2", "viability z-score, knock-down alone": -0.222, "Outcome": "inactive"}
{"gene": "STAG2", "viability z-score, knock-down alone": 0.389, "Outcome": "inactive"}
{"gene": "NRAS", "viability z-score, knock-down alone": -0.0877, "Outcome": "inactive"}
{"gene": "NRBP1", "viability z-score, knock-down alone": 0.737, "Outcome": "inactive"}
{"gene": "MAST2", "viability z-score, knock-down alone": 0.767, "Outcome": "inactive"}
{"gene": "AKT2", "viability z-score, knock-down alone": -0.893, "Outcome": "inactive"}
{"gene": "DUSP21", "viability z-score, knock-down alone": -0.0268, "Outcome": "inactive"}
{"gene": "CAMK1", "viability z-score, knock-down alone": 0.439, "Outcome": "inactive"}
{"gene": "PAK4", "viability z-score, knock-down alone": 0.29, "Outcome": "inactive"}
{"gene": "OBSCN", "viability z-score, knock-down alone": -0.334, "Outcome": "inactive"}
{"gene": "GUCY2D", "viability z-score, knock-down alone": -2.64, "Outcome": "inactive"}
{"gene": "LMTK3", "viability z-score, knock-down alone": 0.791, "Outcome": "inactive"}
{"gene": "EPHB1", "viability z-score, knock-down alone": -1.28, "Outcome": "inactive"}
{"gene": "PRPS1", "viability z-score, knock-down alone": -1.01, "Outcome": "inactive"}
{"gene": "HIPK3", "viability z-score, knock-down alone": -0.826, "Outcome": "inactive"}
{"gene": "STK17A", "viability z-score, knock-down alone": -2.15, "Outcome": "inactive"}
